Measurements published in paper PMC11564821.
Results are given in words; binding and its absence hold for the method and conditions named. In cells and extracts the contact can be indirect. Some entries that bind do so weakly or less than the wild type. Tags and fused reporters may be left off the sequences shown.

Chains of the proteins cited; added tags and fusions are not shown.
UniProt P19474: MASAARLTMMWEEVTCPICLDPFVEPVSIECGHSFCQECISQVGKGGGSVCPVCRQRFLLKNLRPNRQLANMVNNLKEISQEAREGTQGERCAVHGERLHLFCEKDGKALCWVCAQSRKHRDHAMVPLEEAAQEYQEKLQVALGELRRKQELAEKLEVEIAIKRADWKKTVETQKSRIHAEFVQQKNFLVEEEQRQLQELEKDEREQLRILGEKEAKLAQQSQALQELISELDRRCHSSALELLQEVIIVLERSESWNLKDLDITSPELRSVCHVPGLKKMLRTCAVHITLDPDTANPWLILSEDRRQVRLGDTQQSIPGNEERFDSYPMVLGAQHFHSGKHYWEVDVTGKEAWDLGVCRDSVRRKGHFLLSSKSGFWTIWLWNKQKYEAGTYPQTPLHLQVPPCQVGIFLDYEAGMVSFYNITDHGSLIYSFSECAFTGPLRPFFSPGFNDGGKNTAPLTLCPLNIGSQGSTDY

Target: Myc-TRIM21 (overexpressed in HEK293T) (UniProt P19474)
Assay: co-IP; two tagged proteins overexpressed together in HEK293T, each in turn immunoprecipitated by its tag; lysate supernatant with beads at 4 °C overnight, five washes with lysis buffer, immunoblot

binding: binds
B1: HA-MDM4 (overexpressed in HEK293T) (protein, UniProt O15151 1-490)
chain: MTSFSTSAQCSTSDSACRISPGQINQVRPKLPLLKILHAAGAQGEMFTVKEVMHYLGQYIMVKQLYDQQEQHMVYCGGDLLGELLGRQSFSVKDPSPLYDMLRKNLVTLATATTDAAQTLALAQDHSMDIPSQDQLKQSAEESSTSRKRTTEDDIPTLPTSEHKCIHSREDEDLIENLAQDETSRLDLGFEEWDVAGLPWWFLGNLRSNYTPRSNGSTDLQTNQDVGTAIVSDTTDDLWFLNESVSEQLGVGIKVEAADTEQTSEEVGKVSDKKVIEVGKNDDLEDSKSLSDDTDVEVTSEDEWQCTECKKFNSPSKRYCFRCWALRKDWYSDCSKLTHSLSTSDITAIPEKENEGNDVPDCRRTISAPVVRPKDAYIKKENSKLFDPCNSVEFLDLAHSSESQETISSMGEQLDNLSEQRTDTENMEDCQNLLKPCSLCEKRPRDGNIIHGRTGHLVTCFHCARRLKKAGASCPICKKEIQLVIKVFIA
